From US12138274B2, “Compositions and methods for the treatment of peripheral artery disease and cardiopulmonary diseases” (BOARD OF REGENTS OF THE UNIVERSITY OF NEBRASKA, priority 2018, dated 2024)
At least one compound was matched to its structure with a doubt left.

Legend:
Format in all cases: in vivo, rat
[1] = tested on: Interferon Regulatory Factor 8 (IRF8); experiment: Western blot of IRF8 in T1-T4 DRGs of myocardial infarction rats; conditions: 20 mg/kg/day in drinking water
chronic PAD rats [2] = experiment: Exercise pressor reflex: MAP and MVR responses to static or dynamic exercise in PAD rats (femoral artery occlusion); conditions: oral 20 mg/kg/day started 3 days before femoral arterial occlusion; PAD rats at 1 month
post-MI rats = experiment: Cardiovascular response (MAP, HR, RSNA) to epicardial bradykinin in post-MI rats; conditions: 4-week continuous 20 mg/kg/day via drinking water; BK 10 μg/ml; 4 weeks post-MI
chronic PAD rats [3] = experiment: Von Frey assay of mechanical allodynia in PAD rats; conditions: oral 20 mg/kg/day started 3 days before femoral arterial occlusion
[4] = tested on: Interferon Regulatory Factor 8 (IRF8); experiment: Western blot of IRF8 (macrophage activation marker) in lumbar DRGs of PAD rats; conditions: oral 20 mg/kg/day started 3 days before femoral arterial occlusion; compared to PAD rats

CN(C)c1ccc(O)c2c1C[C@H]1C[C@H]3[C@H](N(C)C)C(O)=C(C(N)=O)C(=O)[C@@]3(O)C(O)=C1C2=O [minocycline]
macrophage activation (IRF8) in T1-T4 DRGs (FIG. 10) ([1]; 8 weeks post MI): largely suppress | upregulated macrophage activation marker IRF8 in T1-T4 DRGs (FIG. 10) ([1]; until 4 weeks post MI): completely prevent | development of the exaggerated EPR (change in MAP during static exercise, FIG. 5A) (chronic PAD rats [2]): prevented the development of the exaggerated EPR | vasoconstriction in exercising muscle during dynamic exercise (change in MVR, FIG. 5B) (chronic PAD rats [2]): prevented | exaggerated cardiovascular response to epicardial bradykinin (MAP, HR, RSNA, FIG. 11) (post-MI rats): completely abolished | development of mechanical allodynia (Von Frey threshold, FIG. 6) (chronic PAD rats [3]): prevents the development of mechanical allodynia | IRF8 expression in lumbar DRGs (FIG. 7) [4]: dramatically decreased
